Experimental data published in ChEMBL document CHEMBL4316593 (Eur J Med Chem, 2019).
The source gives many values for each of these; only a part stands here.

Key:
Format in all cases: cell-based
Conditions in all cases: U-87MG ATCC
[1] = Inhibition of RTK/PI3K/AKT/mTOR signaling in human U87 cells assessed as down regulation of ZSWIM5 gene expression at cytotoxic IC50 measured after 48 hrs relative to control
[2] = Inhibition of RTK/PI3K/AKT/mTOR signaling in human U87 cells assessed as down regulation of TLN1 gene expression at cytotoxic IC50 measured after 48 hrs relative to control
[3] = Inhibition of RTK/PI3K/AKT/mTOR signaling in human U87 cells assessed as down regulation of ENPP1 gene expression at cytotoxic IC50 measured after 48 hrs relative to control
[4] = Inhibition of RTK/PI3K/AKT/mTOR signaling in human U87 cells assessed as up regulation of DGAT2 gene expression at cytotoxic IC50 measured after 48 hrs relative to control
[5] = Inhibition of RTK/PI3K/AKT/mTOR signaling in human U87 cells assessed as up regulation of tripartite motif containing 32 gene expression at cytotoxic IC50 measured after 48 hrs relative to control
[6] = Inhibition of RTK/PI3K/AKT/mTOR signaling in human U87 cells assessed as up regulation of CA11 gene expression at cytotoxic IC50 measured after 48 hrs relative to control
[7] = Inhibition of RTK/PI3K/AKT/mTOR signaling in human U87 cells assessed as up regulation of G protein-coupled receptor class C group 5 member C gene expression at cytotoxic IC50 measured after 48 hrs relative to control
[8] = Inhibition of RTK/PI3K/AKT/mTOR signaling in human U87 cells assessed as up regulation of CAMK1D gene expression at cytotoxic IC50 measured after 48 hrs relative to control
[9] = Inhibition of RTK/PI3K/AKT/mTOR signaling in human U87 cells assessed as down regulation of BAK1 gene expression at cytotoxic IC50 measured after 48 hrs relative to control
[10] = Inhibition of RTK/PI3K/AKT/mTOR signaling in human U87 cells assessed as down regulation of RFC2 gene expression at cytotoxic IC50 measured after 48 hrs relative to control
[11] = Inhibition of RTK/PI3K/AKT/mTOR signaling in human U87 cells assessed as down regulation of TXNRD1 gene expression at cytotoxic IC50 measured after 48 hrs relative to control
[12] = Inhibition of RTK/PI3K/AKT/mTOR signaling in human U87 cells assessed as up regulation of DDX46 gene expression at cytotoxic IC50 measured after 48 hrs relative to control
[13] = Inhibition of RTK/PI3K/AKT/mTOR signaling in human U87 cells assessed as down regulation of PSMD11 gene expression at cytotoxic IC50 measured after 48 hrs relative to control
[14] = Inhibition of RTK/PI3K/AKT/mTOR signaling in human U87 cells assessed as down regulation of KCTD10 gene expression at cytotoxic IC50 measured after 48 hrs relative to control
[15] = Inhibition of RTK/PI3K/AKT/mTOR signaling in human U87 cells assessed as up regulation of inositol 1,4,5-trisphosphate receptor interacting protein like 2 gene expression at cytotoxic IC50 measured after 48 hrs relative to control
[16] = Inhibition of RTK/PI3K/AKT/mTOR signaling in human U87 cells assessed as down regulation of NGDN gene expression at cytotoxic IC50 measured after 48 hrs relative to control
[17] = Inhibition of RTK/PI3K/AKT/mTOR signaling in human U87 cells assessed as up regulation of DNA damage inducible transcript 4 gene expression at cytotoxic IC50 measured after 48 hrs relative to control
[18] = Inhibition of RTK/PI3K/AKT/mTOR signaling in human U87 cells assessed as up regulation of protein disulfide isomerase family A member 3 gene expression at cytotoxic IC50 measured after 48 hrs relative to control
[19] = Inhibition of RTK/PI3K/AKT/mTOR signaling in human U87 cells assessed as down regulation of MEGF9 gene expression at cytotoxic IC50 measured after 48 hrs relative to control
[20] = Inhibition of RTK/PI3K/AKT/mTOR signaling in human U87 cells assessed as up regulation of DCTPP1 gene expression at cytotoxic IC50 measured after 48 hrs relative to control
[21] = Inhibition of RTK/PI3K/AKT/mTOR signaling in human U87 cells assessed as up regulation of cyclin dependent kinase 18 gene expression at cytotoxic IC50 measured after 48 hrs relative to control
[22] = Inhibition of RTK/PI3K/AKT/mTOR signaling in human U87 cells assessed as down regulation of TTC7A gene expression at cytotoxic IC50 measured after 48 hrs relative to control
[23] = Inhibition of RTK/PI3K/AKT/mTOR signaling in human U87 cells assessed as down regulation of PRKAB1 gene expression at cytotoxic IC50 measured after 48 hrs relative to control
[24] = Inhibition of RTK/PI3K/AKT/mTOR signaling in human U87 cells assessed as up regulation of LDHB gene expression at cytotoxic IC50 measured after 48 hrs relative to control
[25] = Inhibition of RTK/PI3K/AKT/mTOR signaling in human U87 cells assessed as down regulation of BSN gene expression at cytotoxic IC50 measured after 48 hrs relative to control
[26] = Inhibition of RTK/PI3K/AKT/mTOR signaling in human U87 cells assessed as up regulation of FHL1 gene expression at cytotoxic IC50 measured after 48 hrs relative to control
[27] = Inhibition of RTK/PI3K/AKT/mTOR signaling in human U87 cells assessed as up regulation of DBP gene expression at cytotoxic IC50 measured after 48 hrs relative to control
[28] = Inhibition of RTK/PI3K/AKT/mTOR signaling in human U87 cells assessed as down regulation of ARHGAP1 gene expression at cytotoxic IC50 measured after 48 hrs relative to control
[29] = Inhibition of RTK/PI3K/AKT/mTOR signaling in human U87 cells assessed as down regulation of GPCPD1 gene expression at cytotoxic IC50 measured after 48 hrs relative to control
[30] = Inhibition of RTK/PI3K/AKT/mTOR signaling in human U87 cells assessed as down regulation of RNR1 gene expression at cytotoxic IC50 measured after 48 hrs relative to control
[31] = Inhibition of RTK/PI3K/AKT/mTOR signaling in human U87 cells assessed as down regulation of VMP1 gene expression at cytotoxic IC50 measured after 48 hrs relative to control
[32] = Inhibition of RTK/PI3K/AKT/mTOR signaling in human U87 cells assessed as up regulation of RANBP2-type and C3HC4-type zinc finger containing 1 gene expression at cytotoxic IC50 measured after 48 hrs relative to control

CC(=O)C(=NNc1ccccc1C#N)C(C)=O gave a log2FC [1] of -1.49, a log2FC [2] of -0.367 and a log2FC [3] of -1.58. For the same compound, the log2FC [4] was 2.4, the log2FC [5] was 0.829 and the log2FC [6] was 2.24. For the same compound, the log2FC [7] was 1.25, the log2FC [8] was 1.98 and the log2FC [9] was -1.19. For the same compound, the log2FC [10] was -1.11, the log2FC [11] was -0.383 and the log2FC [12] was 0.495. For the same compound, the log2FC [13] was -0.628, the log2FC [14] was -0.869 and the log2FC [15] was 0.775. For the same compound, the log2FC [16] was -0.616, the log2FC [17] was 0.822 and the log2FC [18] was 0.667. For the same compound, the log2FC [19] was -1.23, the log2FC [20] was 0.61 and the log2FC [21] was 1.04. The log2FC [22] was -1.07, the log2FC [23] was -0.869 and the log2FC [24] was 0.605. The log2FC [25] was -2.26, the log2FC [26] was 2.16 and the log2FC [27] was 1.72. It also gave a log2FC [28] of -0.563, a log2FC [29] of -2 and a log2FC [30] of -1.03. It also gave a log2FC [31] of -1.33 and a log2FC [32] of 1.14.
